Results deposited as PubChem BioAssay AID1259298 (Sanger Institute, 2017)

- Screen: 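Kinome knock-downs lethal on their own or synergising with anchor drugs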 (primary screen)
- System: HT55 human colorectal cancer cell line
- Knock-down reagent: siRNA pool against human genes
- Conditions: anchor drug BYL719 1 µM, cetuximab 5 µg/ml or trametinib 10 nM, or DMSO vehicle alone
- Detection: 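Replicate-averaged viability versus wells of non-targeting pool; knock-down-only robust z-score; per-drug synergy score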
- Reading the numbers: robust z-score, knock-down alone: higher = more cells remaining; low means essential gene; viability vs control pool, no drug: higher = more viable cells; synergy score with BYL719 and synergy score with cetuximab and synergy score with trametinib: higher = stronger synthetic lethality with the drug
- Hit rule: 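a gene counts as essential if its knock-down-alone robust z-score falls under -3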
- Calls: active = essential (knock-down alone); inactive = no change alone
The whole screen tested 794 reagents; shown is a random part of them. 20 of them (2.5%) count as active. 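Calls rest only on the knock-down-alone score; drug synergy scores played no part in them.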 Viability is capped at 1. The record does not give: the amount of reagent, the time to read-out.

gene knocked down,"robust z-score, knock-down alone","viability vs control pool, no drug (fraction)",synergy score with BYL719,synergy score with cetuximab,synergy score with trametinib,activity call
CDK10 (GeneID 8558),0.58,1,-0.111,-0.149,-0.0998,inactive
EIF2AK1 (GeneID 27102),0.58,1,-0.0481,-0.211,0.079,inactive
PTPRU (GeneID 10076),-0.671,0.902,-0.137,-0.172,-0.151,inactive
STK10 (GeneID 6793),0.58,1,-0.272,-0.211,-0.0723,inactive
CDADC1 (GeneID 81602),0.58,1,-0.21,-0.211,-0.00447,inactive
CREBBP (GeneID 1387),0.289,0.977,-0.149,0.00761,0.111,inactive
BUB1B (GeneID 701),-0.391,0.924,-0.161,-0.0743,0.0671,inactive
PFKL (GeneID 5211),0.58,1,-0.199,-0.211,0.00466,inactive
MAPK10 (GeneID 5602),0.58,1,-0.206,-0.211,-0.0848,inactive
ROS1 (GeneID 6098),0.161,0.967,-0.0857,-0.0908,0.0347,inactive
PIK3R3 (GeneID 8503),0.58,1,-0.209,-0.165,-0.209,inactive
PXK (GeneID 54899),-0.311,0.93,-0.0913,-0.128,0.00661,inactive
DGUOK (GeneID 1716),-3.58,0.674,-0.222,-0.103,-0.0999,active
MAPK4 (GeneID 5596),-1.42,0.844,-0.291,-0.248,-0.0742,inactive
CDC42BPG (GeneID 55561),0.58,1,-0.193,-0.173,0.127,inactive
ULK3 (GeneID 25989),0.58,1,-0.251,-0.211,-0.177,inactive
DMPK (GeneID 1760),0.58,1,-0.151,-0.21,-0.0215,inactive
RTN4 (GeneID 57142),0.58,1,-0.129,-0.0689,-0.11,inactive
NPR2 (GeneID 4882),0.58,1,-0.074,-0.211,0.0989,inactive
CDK9 (GeneID 1025),0.58,1,-0.272,-0.211,0.029,inactive
PRKCD (GeneID 5580),0.248,0.974,0.0573,-0.021,0.129,inactive
ITK (GeneID 3702),0.58,1,-0.272,-0.131,-0.117,inactive

11 of these entries, reformatted.
{"gene knocked down":"PTPRU (GeneID 10076)","robust z-score, knock-down alone":-0.671,"viability vs control pool, no drug (fraction)":0.902,"synergy score with BYL719":-0.137,"synergy score with cetuximab":-0.172,"synergy score with trametinib":-0.151,"activity call":"inactive"}
{"gene knocked down":"STK10 (GeneID 6793)","robust z-score, knock-down alone":0.58,"viability vs control pool, no drug (fraction)":1,"synergy score with BYL719":-0.272,"synergy score with cetuximab":-0.211,"synergy score with trametinib":-0.0723,"activity call":"inactive"}
{"gene knocked down":"CDADC1 (GeneID 81602)","robust z-score, knock-down alone":0.58,"viability vs control pool, no drug (fraction)":1,"synergy score with BYL719":-0.21,"synergy score with cetuximab":-0.211,"synergy score with trametinib":-0.00447,"activity call":"inactive"}
{"gene knocked down":"CREBBP (GeneID 1387)","robust z-score, knock-down alone":0.289,"viability vs control pool, no drug (fraction)":0.977,"synergy score with BYL719":-0.149,"synergy score with cetuximab":0.00761,"synergy score with trametinib":0.111,"activity call":"inactive"}
{"gene knocked down":"BUB1B (GeneID 701)","robust z-score, knock-down alone":-0.391,"viability vs control pool, no drug (fraction)":0.924,"synergy score with BYL719":-0.161,"synergy score with cetuximab":-0.0743,"synergy score with trametinib":0.0671,"activity call":"inactive"}
{"gene knocked down":"PFKL (GeneID 5211)","robust z-score, knock-down alone":0.58,"viability vs control pool, no drug (fraction)":1,"synergy score with BYL719":-0.199,"synergy score with cetuximab":-0.211,"synergy score with trametinib":0.00466,"activity call":"inactive"}
{"gene knocked down":"MAPK10 (GeneID 5602)","robust z-score, knock-down alone":0.58,"viability vs control pool, no drug (fraction)":1,"synergy score with BYL719":-0.206,"synergy score with cetuximab":-0.211,"synergy score with trametinib":-0.0848,"activity call":"inactive"}
{"gene knocked down":"ROS1 (GeneID 6098)","robust z-score, knock-down alone":0.161,"viability vs control pool, no drug (fraction)":0.967,"synergy score with BYL719":-0.0857,"synergy score with cetuximab":-0.0908,"synergy score with trametinib":0.0347,"activity call":"inactive"}
{"gene knocked down":"PIK3R3 (GeneID 8503)","robust z-score, knock-down alone":0.58,"viability vs control pool, no drug (fraction)":1,"synergy score with BYL719":-0.209,"synergy score with cetuximab":-0.165,"synergy score with trametinib":-0.209,"activity call":"inactive"}
{"gene knocked down":"PXK (GeneID 54899)","robust z-score, knock-down alone":-0.311,"viability vs control pool, no drug (fraction)":0.93,"synergy score with BYL719":-0.0913,"synergy score with cetuximab":-0.128,"synergy score with trametinib":0.00661,"activity call":"inactive"}
{"gene knocked down":"DGUOK (GeneID 1716)","robust z-score, knock-down alone":-3.58,"viability vs control pool, no drug (fraction)":0.674,"synergy score with BYL719":-0.222,"synergy score with cetuximab":-0.103,"synergy score with trametinib":-0.0999,"activity call":"active"}

More results:
gene knocked down,"robust z-score, knock-down alone","viability vs control pool, no drug (fraction)",synergy score with BYL719,synergy score with cetuximab,synergy score with trametinib,activity call
TSSK4 (GeneID 283629),-0.1,0.947,-0.223,-0.219,-0.14,inactive
PRKD2 (GeneID 25865),0.58,1,-0.272,-0.0151,0.0151,inactive
FXN (GeneID 2395),-0.496,0.916,-0.228,-0.169,-0.113,inactive
MAST1 (GeneID 22983),0.58,1,-0.272,-0.107,-0.151,inactive
MAP2K4 (GeneID 6416),-0.515,0.914,-0.155,-0.124,-0.0392,inactive
CHD4 (GeneID 1108),-3.7,0.666,-0.0677,0.0184,0.043,active
YES1 (GeneID 7525),0.58,1,-0.0828,-0.211,-0.0451,inactive
TESK1 (GeneID 7016),0.58,1,-0.272,-0.211,-0.159,inactive
MAST2 (GeneID 23139),0.58,1,-0.212,-0.156,-0.0341,inactive
CDKN2B (GeneID 1030),0.58,1,-0.195,-0.127,-0.111,inactive
UHMK1 (GeneID 127933),0.58,1,-0.272,0.00409,0.0321,inactive
SPHK1 (GeneID 8877),0.58,1,-0.11,-0.0315,0.115,inactive
MAP3K6 (GeneID 9064),0.58,1,-0.107,-0.211,0.0156,inactive
MARK3 (GeneID 4140),0.0958,0.962,-0.153,-0.206,-0.136,inactive
CDKL2 (GeneID 8999),-0.501,0.915,-0.154,-0.11,0.00273,inactive
RIOK1 (GeneID 83732),0.58,1,-0.235,-0.211,-0.0332,inactive
GALK1 (GeneID 2584),-0.837,0.889,-0.115,-0.275,-0.172,inactive
CDK11B (GeneID 984),-3.14,0.709,-0.267,-0.328,-0.0855,active
RNASEL (GeneID 6041),0.0384,0.958,-0.303,-0.245,-0.137,inactive
CKB (GeneID 1152),0.58,1,-0.272,-0.211,-0.213,inactive
STK11 (GeneID 6794),-0.0163,0.953,-0.11,0.0185,-0.097,inactive
AURKA (GeneID 6790),-4.9,0.571,-0.549,-0.163,-0.171,active
KDR (GeneID 3791),0.58,1,-0.0842,-0.0991,0.00583,inactive
CIT (GeneID 11113),-0.649,0.904,-0.104,0.137,0.0715,inactive
ERBB2 (GeneID 2064),0.58,1,-0.142,-0.111,0.0202,inactive
CKMT2 (GeneID 1160),0.58,1,-0.179,-0.091,0.00792,inactive
BMPR2 (GeneID 659),-0.0882,0.948,-0.206,-0.141,-0.0879,inactive
TRPM7 (GeneID 54822),0.58,1,-0.259,-0.0876,-0.00649,inactive
CDK8 (GeneID 1024),0.58,1,-0.272,-0.187,-0.192,inactive
JAK2 (GeneID 3717),0.58,1,-0.252,-0.211,-0.21,inactive
CMPK1 (GeneID 51727),0.58,1,-0.166,-0.193,0.0154,inactive
KCNH2 (GeneID 3757),-1.18,0.863,-0.127,-0.143,-0.135,inactive
MAP3K11 (GeneID 4296),0.58,1,-0.114,-0.211,-0.04,inactive
CDK18 (GeneID 5129),0.131,0.965,-0.0979,-0.0528,0.0304,inactive
HASPIN (GeneID 83903),-1.64,0.827,-0.232,-0.0218,0.0439,inactive
TNIK (GeneID 23043),0.58,1,-0.098,-0.211,-0.0532,inactive
MAP2K2 (GeneID 5605),-0.427,0.921,-0.169,-0.168,0.0545,inactive
MAP3K10 (GeneID 4294),0.58,1,-0.272,-0.171,-0.0785,inactive
GRK7 (GeneID 131890),-0.17,0.941,-0.219,-0.156,-0.0293,inactive
IPMK (GeneID 253430),0.58,1,-0.128,-0.0102,0.00876,inactive
ROR1 (GeneID 4919),0.58,1,-0.132,0.0318,-0.0281,inactive
